Data published in the supplement of paper PMC10849652.
Some of the results follow.

Amino acid sequences for entries named in this document (tags omitted). A change or cut given only in a name is not applied to a line headed by its entry.
UniProt P55769: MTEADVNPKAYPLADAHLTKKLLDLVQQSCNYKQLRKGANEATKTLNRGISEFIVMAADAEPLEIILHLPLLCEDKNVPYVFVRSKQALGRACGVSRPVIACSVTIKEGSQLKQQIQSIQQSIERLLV
UniProt P62318, whole entry, looked up: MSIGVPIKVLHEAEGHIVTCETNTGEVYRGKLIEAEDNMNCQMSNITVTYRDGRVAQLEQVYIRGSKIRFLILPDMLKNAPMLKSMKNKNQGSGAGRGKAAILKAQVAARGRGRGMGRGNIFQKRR
UniProt O60749: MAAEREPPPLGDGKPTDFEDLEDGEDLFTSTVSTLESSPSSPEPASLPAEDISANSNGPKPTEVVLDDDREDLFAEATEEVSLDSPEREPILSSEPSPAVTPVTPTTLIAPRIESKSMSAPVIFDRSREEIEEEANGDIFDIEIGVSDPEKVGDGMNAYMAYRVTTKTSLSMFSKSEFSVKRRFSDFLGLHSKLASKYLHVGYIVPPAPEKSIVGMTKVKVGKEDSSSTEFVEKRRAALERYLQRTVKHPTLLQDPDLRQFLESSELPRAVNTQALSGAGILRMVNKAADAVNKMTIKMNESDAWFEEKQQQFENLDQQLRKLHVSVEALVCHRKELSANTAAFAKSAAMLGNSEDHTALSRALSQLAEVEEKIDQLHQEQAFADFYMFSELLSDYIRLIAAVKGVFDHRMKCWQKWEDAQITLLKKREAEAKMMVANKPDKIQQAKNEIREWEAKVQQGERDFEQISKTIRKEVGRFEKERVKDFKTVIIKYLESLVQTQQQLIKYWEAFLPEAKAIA
UniProt P57768: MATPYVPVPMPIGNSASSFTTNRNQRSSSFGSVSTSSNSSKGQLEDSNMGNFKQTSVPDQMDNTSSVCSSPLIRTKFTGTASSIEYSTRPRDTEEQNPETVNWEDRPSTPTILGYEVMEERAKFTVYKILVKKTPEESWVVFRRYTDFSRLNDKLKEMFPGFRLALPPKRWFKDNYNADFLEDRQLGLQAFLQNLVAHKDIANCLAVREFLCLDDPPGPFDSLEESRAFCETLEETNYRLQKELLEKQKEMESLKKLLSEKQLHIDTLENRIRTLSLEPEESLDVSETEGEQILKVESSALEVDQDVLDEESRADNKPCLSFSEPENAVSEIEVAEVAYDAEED
UniProt Q9NRS6: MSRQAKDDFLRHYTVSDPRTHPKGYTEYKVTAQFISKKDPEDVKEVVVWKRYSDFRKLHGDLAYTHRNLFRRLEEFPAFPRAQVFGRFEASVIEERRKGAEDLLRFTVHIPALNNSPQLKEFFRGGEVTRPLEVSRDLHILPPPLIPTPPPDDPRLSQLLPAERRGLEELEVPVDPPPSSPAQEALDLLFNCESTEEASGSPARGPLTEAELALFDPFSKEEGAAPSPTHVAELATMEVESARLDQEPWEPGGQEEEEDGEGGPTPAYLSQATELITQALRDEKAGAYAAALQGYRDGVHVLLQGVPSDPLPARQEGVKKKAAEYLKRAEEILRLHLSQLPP
UniProt Q14683: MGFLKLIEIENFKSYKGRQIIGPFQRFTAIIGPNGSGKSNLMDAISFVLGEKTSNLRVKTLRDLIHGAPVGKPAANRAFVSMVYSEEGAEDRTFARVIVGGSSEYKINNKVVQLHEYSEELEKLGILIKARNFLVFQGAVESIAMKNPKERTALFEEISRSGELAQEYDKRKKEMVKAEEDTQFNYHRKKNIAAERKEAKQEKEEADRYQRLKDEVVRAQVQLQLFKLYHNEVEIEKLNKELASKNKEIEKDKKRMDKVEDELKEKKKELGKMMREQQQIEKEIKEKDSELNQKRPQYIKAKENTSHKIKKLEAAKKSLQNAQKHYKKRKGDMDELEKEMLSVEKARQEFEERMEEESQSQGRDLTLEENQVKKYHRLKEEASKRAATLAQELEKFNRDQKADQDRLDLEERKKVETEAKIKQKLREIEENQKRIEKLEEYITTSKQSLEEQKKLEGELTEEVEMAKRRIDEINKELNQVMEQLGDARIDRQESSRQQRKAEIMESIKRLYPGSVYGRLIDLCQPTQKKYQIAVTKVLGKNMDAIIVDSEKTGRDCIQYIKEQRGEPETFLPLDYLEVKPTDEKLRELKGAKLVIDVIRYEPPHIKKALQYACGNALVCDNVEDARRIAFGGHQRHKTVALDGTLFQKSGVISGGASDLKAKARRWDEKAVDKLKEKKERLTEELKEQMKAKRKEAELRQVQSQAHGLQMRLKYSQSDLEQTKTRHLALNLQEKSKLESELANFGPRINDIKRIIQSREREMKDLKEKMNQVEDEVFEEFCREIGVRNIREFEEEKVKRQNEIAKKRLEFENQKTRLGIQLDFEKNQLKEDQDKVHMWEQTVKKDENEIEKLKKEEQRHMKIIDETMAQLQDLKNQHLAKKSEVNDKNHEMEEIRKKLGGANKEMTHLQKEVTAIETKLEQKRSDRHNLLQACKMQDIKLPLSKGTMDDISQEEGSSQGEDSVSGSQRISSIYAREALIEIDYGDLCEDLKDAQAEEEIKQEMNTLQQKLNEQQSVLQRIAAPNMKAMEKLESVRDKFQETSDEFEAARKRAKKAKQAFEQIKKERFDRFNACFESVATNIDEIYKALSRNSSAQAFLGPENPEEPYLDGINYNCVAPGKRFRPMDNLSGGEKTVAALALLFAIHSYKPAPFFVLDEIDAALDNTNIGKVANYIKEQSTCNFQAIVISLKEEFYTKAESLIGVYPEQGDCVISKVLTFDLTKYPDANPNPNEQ
UniProt Q96R06: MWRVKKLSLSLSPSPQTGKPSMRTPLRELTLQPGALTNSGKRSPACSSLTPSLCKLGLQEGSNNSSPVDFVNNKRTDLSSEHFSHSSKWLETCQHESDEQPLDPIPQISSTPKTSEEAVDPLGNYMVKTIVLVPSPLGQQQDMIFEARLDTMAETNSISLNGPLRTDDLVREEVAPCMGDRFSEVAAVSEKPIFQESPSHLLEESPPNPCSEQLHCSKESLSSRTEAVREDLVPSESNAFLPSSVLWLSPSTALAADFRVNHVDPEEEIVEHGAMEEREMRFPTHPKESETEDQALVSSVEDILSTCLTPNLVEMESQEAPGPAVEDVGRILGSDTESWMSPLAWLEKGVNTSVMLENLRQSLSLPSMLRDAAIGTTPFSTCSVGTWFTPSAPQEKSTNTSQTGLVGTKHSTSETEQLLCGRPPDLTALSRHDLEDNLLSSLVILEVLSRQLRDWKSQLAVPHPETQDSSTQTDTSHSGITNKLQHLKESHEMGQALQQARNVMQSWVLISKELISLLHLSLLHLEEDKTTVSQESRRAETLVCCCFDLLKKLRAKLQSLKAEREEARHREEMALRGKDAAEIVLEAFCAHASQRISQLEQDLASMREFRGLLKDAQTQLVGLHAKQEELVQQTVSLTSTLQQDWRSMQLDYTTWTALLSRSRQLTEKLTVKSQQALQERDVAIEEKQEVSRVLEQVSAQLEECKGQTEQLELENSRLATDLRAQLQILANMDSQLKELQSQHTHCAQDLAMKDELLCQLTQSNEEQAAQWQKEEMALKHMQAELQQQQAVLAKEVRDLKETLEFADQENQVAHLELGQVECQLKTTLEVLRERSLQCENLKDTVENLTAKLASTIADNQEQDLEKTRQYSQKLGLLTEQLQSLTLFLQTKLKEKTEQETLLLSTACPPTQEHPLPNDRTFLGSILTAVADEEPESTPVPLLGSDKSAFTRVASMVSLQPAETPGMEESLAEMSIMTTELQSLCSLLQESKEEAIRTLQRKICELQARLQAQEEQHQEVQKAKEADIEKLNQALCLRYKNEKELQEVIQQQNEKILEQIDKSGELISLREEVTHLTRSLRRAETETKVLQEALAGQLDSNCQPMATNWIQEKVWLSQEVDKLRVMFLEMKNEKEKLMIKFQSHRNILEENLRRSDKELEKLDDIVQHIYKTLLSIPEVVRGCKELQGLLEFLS
UniProt Q9NTJ3, whole entry, looked up: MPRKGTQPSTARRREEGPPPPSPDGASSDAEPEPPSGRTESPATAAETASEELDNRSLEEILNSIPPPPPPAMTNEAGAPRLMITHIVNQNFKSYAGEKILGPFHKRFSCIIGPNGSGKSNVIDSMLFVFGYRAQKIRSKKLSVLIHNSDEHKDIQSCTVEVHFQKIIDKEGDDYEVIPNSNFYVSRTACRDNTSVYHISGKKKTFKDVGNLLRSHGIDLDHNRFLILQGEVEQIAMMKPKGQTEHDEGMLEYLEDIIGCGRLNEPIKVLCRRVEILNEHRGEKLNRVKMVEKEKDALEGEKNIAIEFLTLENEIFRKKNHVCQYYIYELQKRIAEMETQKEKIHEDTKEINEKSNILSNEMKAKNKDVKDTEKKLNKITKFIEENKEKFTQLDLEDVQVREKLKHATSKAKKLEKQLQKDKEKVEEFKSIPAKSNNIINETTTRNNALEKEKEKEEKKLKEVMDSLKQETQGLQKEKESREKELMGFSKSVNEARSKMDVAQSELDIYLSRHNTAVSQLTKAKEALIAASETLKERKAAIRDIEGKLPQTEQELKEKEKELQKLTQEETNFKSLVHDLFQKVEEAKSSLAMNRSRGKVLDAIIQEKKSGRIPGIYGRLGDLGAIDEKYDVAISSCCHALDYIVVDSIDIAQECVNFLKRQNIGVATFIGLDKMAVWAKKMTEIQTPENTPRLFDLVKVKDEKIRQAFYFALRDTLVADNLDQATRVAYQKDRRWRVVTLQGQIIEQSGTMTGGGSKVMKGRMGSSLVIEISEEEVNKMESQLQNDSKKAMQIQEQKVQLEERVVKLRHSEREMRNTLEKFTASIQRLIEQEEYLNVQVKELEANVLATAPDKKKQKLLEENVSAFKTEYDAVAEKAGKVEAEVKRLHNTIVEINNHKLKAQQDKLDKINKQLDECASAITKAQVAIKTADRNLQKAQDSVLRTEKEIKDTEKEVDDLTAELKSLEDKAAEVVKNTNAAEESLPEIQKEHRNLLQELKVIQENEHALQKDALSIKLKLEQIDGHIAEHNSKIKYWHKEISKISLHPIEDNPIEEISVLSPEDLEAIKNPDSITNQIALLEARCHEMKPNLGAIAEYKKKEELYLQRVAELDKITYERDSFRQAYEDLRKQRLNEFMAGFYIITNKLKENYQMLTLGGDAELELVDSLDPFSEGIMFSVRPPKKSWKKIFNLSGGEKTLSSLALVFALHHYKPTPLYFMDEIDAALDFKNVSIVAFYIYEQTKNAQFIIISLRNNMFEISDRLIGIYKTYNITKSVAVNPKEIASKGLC
UniProt P62306, whole entry, looked up: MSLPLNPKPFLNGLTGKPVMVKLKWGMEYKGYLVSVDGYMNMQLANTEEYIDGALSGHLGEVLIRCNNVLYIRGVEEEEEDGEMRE
UniProt P23497: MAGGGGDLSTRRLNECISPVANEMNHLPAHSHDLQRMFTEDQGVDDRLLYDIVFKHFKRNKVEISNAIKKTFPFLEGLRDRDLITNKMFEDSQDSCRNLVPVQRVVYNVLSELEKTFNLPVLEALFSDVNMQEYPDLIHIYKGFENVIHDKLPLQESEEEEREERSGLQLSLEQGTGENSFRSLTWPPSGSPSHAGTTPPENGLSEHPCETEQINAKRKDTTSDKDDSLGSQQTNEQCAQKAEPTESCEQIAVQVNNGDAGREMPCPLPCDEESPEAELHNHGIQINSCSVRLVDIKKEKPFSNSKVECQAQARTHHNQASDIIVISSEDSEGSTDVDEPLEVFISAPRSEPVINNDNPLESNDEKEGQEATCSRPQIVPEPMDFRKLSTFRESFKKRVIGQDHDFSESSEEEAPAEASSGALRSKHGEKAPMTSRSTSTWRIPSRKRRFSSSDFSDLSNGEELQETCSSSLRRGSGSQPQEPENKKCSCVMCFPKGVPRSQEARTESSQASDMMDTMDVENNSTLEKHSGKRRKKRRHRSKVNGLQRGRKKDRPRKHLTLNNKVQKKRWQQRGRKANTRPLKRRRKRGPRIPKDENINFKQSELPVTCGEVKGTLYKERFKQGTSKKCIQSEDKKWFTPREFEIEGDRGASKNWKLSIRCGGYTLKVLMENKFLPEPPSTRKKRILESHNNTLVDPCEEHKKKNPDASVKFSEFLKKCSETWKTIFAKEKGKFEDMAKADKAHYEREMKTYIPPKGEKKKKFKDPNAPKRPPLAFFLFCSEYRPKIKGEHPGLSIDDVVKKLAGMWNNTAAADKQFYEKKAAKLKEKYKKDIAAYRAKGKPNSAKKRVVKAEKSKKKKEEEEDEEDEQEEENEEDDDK
UniProt Q96DI7: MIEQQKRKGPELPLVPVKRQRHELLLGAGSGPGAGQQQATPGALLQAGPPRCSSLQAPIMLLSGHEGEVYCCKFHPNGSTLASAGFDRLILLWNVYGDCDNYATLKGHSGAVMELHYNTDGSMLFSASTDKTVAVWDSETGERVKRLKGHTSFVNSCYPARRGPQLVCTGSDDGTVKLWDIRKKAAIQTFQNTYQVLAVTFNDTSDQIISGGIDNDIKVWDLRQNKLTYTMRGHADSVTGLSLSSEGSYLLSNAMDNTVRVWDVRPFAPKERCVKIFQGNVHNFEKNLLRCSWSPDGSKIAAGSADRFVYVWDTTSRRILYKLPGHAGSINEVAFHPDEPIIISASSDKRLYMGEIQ

How the values were obtained:
Experiment in all cases: log2 fold change, soluble protein after heating vs DMSO (PISA); higher = thermal stabilisation; K562 lysate, 10 uM; active = over 0.2 and 3.5 SD of the protein, either way, in both replicates (recomputed)
ibrutinib = compound: C=CC(=O)N1CCC[C@@H](n2nc(-c3ccc(Oc4ccccc4)cc3)c3c(N)ncnc32)C1 [ibrutinib]
In short: (§1)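 Thermal stability, expressed as log-two fold change relative to solvent controls, is given from duplicates. Crude K562 extract in PBS pH 7.4 with 1 mM MgCl2, at 1 mg/mL protein, was treated with 10 μM compound for 30 min and heated in aliquots for 3 min across 48°C-58°C. After pooling, adjustment to 0.5% NP-40 at 4°C and centrifugation at 21,000xg for 90 min, supernatant protein was measured by TMTpro 16plex LC-MS/MS with channel sums equalised.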

[1] = compound: CC(=O)c1cnc2ccc(-c3cc(Cl)c(O)c(Cl)c3)nc2c1N[C@H]1CC[C@H](CN(C)C)CC1
In short: as §1

ralimetinib = compound: CC(C)(C)Cn1c(N)nc2ccc(-c3[nH]c(C(C)(C)C)nc3-c3ccc(F)cc3)nc21 [ralimetinib]
In short: as §1

[2] = compound: CC(C)(O)CC(=O)NCCn1ccc2ncnc(Nc3ccc(Oc4cccc(C(F)(F)F)c4)c(Cl)c3)c21
In short: as §1

[3] = compound: CC(C)C1=C2N=C(C=C(N2N=C1)NCC3=CC=CC=C3)NCCCCCCN
In short: as §1

[4] = compound: CC1=C(C(CC(=O)N1)C2=CC=C(C=C2)C(F)(F)F)C(=O)NC3=C(C=C4C(=C3)C=NN4)F
In short: as §1

[5] = compound: CC1=C(C2=C(C=C1)C(=O)C3=CC=CC=C3N2CCCN)C
In short: as §1

[6] = compound: CC1=C(C=C(C=C1)NC(=O)C2=CC(=CC=C2)C(C)(C)C#N)NC3=CC4=C(C=C3)N=CN(C4=O)C
In short: as §1

[7] = compound: CC1=C(C=C(C=C1)NC(=O)C2=CC(=CC=C2)N(C)C)NC(=O)C3=CC=C(C=C3)O
In short: as §1

[8] = compound: CC1=CC=C(C=C1)SC2=C3C=C(SC3=CN=C2)C(=O)N
In short: as §1

Measured: log2 fold change

SNU13 (UniProt P55769)
inactive: ibrutinib -0.008 | [1] 0.003 | ralimetinib 0.001 | [2] -0.022 | [3] 0.003 | [4] -0.011 | [5] -0.031 | [6] 0 | [7] 0.02 | [8] -0.023

SNRPD3 (UniProt P62318)
inactive: ibrutinib -0.033 | [1] 0.035 | ralimetinib 0.067 | [2] -0.018 | [3] -0.05 | [4] 0.017 | [5] 0.019 | [6] -0.012 | [7] -0.004 | [8] -0.008

SNX2 isoform 2 (UniProt O60749)
inactive: ibrutinib 0.025 | [1] -0.136 | ralimetinib -0.261 | [2] -0.331 | [3] -0.044 | [4] -0.126 | [5] -0.264 | [6] 0.311 | [7] -0.06 | [8] -0.046

SMC3 (UniProt Q9UQE7)
inactive: ibrutinib 0.002 | [1] -0.001 | ralimetinib -0.023 | [2] 0.003 | [3] -0.002 | [4] -0.004 | [5] 0.01 | [6] -0.014 | [7] 0.011 | [8] 0.01

SNW1 (UniProt Q13573)
inactive: ibrutinib 0.01 | [1] 0.001 | ralimetinib -0.005 | [2] -0.007 | [3] 0.014 | [4] 0.007 | [5] -0.045 | [6] 0.016 | [7] -0.004 | [8] 0.015

SNRPC (UniProt Q5TAL2)
inactive: ibrutinib 0.101 | [1] -0.076 | ralimetinib -0.067 | [2] -0.069 | [3] -0.012 | [4] 0.016 | [5] -0.05 | [6] 0.024 | [7] 0.013 | [8] -0.075

SNX16 (UniProt P57768)
inactive: ibrutinib 0.057 | [1] 0.014 | ralimetinib -0.015 | [2] -0.005 | [3] -0.02 | [4] -0.09 | [5] 0.01 | [6] -0.027 | [7] -0.027 | [8] 0.031

SP3 (UniProt Q02447)
inactive: ibrutinib 0.082 | [1] -0.009 | ralimetinib -0.01 | [2] -0.085 | [3] -0.095 | [4] -0.156 | [5] 0.004 | [6] 0.052 | [7] 0.009 | [8] -0.069

SMC6 (UniProt Q96SB8)
inactive: ibrutinib 0.021 | [1] -0.006 | ralimetinib 0.005 | [2] -0.012 | [3] 0.023 | [4] 0.065 | [5] 0.006 | [6] 0.006 | [7] 0.001 | [8] -0.01

SNX15 (UniProt Q9NRS6)
inactive: ibrutinib -0.006 | [1] -0.014 | ralimetinib 0.012 | [2] -0.002 | [3] -0.058 | [4] 0.009 | [5] 0.037 | [6] -0.046 | [7] 0.066 | [8] 0.019

SMG6 (UniProt Q86US8)
inactive: ibrutinib 0.071 | [1] -0.061 | ralimetinib 0.034 | [2] -0.016 | [3] 0.012 | [4] 0.074 | [5] 0.006 | [6] 0.004 | [7] 0.047 | [8] 0.059

SON isoform 9 (UniProt P18583)
inactive: ibrutinib 0.075 | [1] -0.023 | ralimetinib 0.015 | [2] 0.018 | [3] 0.006 | [4] 0.003 | [5] -0.058 | [6] -0.003 | [7] 0.003 | [8] 0.006

SMC1A (UniProt Q14683)
inactive: ibrutinib 0.01 | [1] -0.009 | ralimetinib -0.017 | [2] -0.025 | [3] -0.009 | [4] 0 | [5] -0.015 | [6] -0.018 | [7] 0.003 | [8] -0.007

SORD (UniProt Q00796)
inactive: ibrutinib -0.001 | [1] 0.013 | ralimetinib -0.033 | [2] -0.007 | [3] 0.016 | [4] -0.01 | [5] -0.019 | [6] 0.017 | [7] -0.033 | [8] 0.014

SPAG5 (UniProt Q96R06)
inactive: ibrutinib -0.005 | [1] 0.039 | ralimetinib -0.001 | [2] 0.017 | [3] -0.013 | [4] 0.03 | [5] -0.024 | [6] -0.024 | [7] 0.008 | [8] -0.005

SMC4 (UniProt Q9NTJ3)
inactive: ibrutinib -0.002 | [1] -0.005 | ralimetinib -0.015 | [2] -0.012 | [3] -0.009 | [4] -0.006 | [5] 0.002 | [6] -0.016 | [7] 0.023 | [8] 0.013

SNTA1 (UniProt Q13424)
inactive: ibrutinib 0.064 | [1] 0.125 | ralimetinib -0.038 | [2] -0.026 | [3] -0.018 | [4] -0.012 | [5] 0 | [6] 0.033 | [7] -0.002 | [8] -0.033

SMG1 (UniProt Q96Q15)
inactive: ibrutinib 0.041 | [1] 0.017 | ralimetinib 0.044 | [2] -0.019 | [3] -0.003 | [4] 0.005 | [5] 0.027 | [6] 0.023 | [7] 0.017 | [8] 0.007

SNCA (UniProt P37840)
inactive: ibrutinib 0.102 | [1] -0.148 | ralimetinib 0.028 | [2] 0.02 | [3] 0.013 | [4] 0.036 | [5] -0.068 | [6] -0.042 | [7] -0.059 | [8] 0.028

SOAT1 (UniProt P35610)
inactive: ibrutinib 0.043 | [1] 0.017 | ralimetinib 0.151 | [2] -0.107 | [3] -0.055 | [4] -0.046 | [5] -0.022 | [6] 0.1 | [7] -0.012 | [8] 0.019

SNRPF (UniProt P62306)
inactive: ibrutinib -0.027 | [1] -0.013 | ralimetinib -0.024 | [2] -0.072 | [3] -0.004 | [4] 0.015 | [5] -0.137 | [6] 0.018 | [7] 0.028 | [8] -0.082

SMYD2 (UniProt Q9NRG4)
inactive: ibrutinib 0.05 | [1] 0 | ralimetinib -0.009 | [2] 0 | [3] 0.076 | [4] 0.012 | [5] -0.027 | [6] -0.006 | [7] -0.027 | [8] -0.009

SP100 isoform 4 (UniProt P23497)
inactive: ibrutinib 0 | [1] 0.003 | ralimetinib 0.055 | [2] 0.038 | [3] -0.017 | [4] -0.024 | [5] -0.003 | [6] -0.016 | [7] -0.008 | [8] -0.015

SNX9 (UniProt Q9Y5X1)
inactive: ibrutinib 0.02 | [1] -0.005 | ralimetinib 0.026 | [2] 0.042 | [3] -0.002 | [4] -0.01 | [5] 0.037 | [6] -0.023 | [7] 0.009 | [8] 0.018

SMG7 (UniProt Q92540)
inactive: ibrutinib 0.019 | [1] 0.041 | ralimetinib -0.036 | [2] -0.13 | [3] 0.066 | [4] -0.02 | [5] -0.01 | [6] -0.281 | [7] 0.047 | [8] 0.03

2 successive records already listed:
SMC6 (UniProt Q96SB8)
inactive: ibrutinib 0.021 | [1] -0.006 | ralimetinib 0.005 | [2] -0.012 | [3] 0.023 | [4] 0.065 | [5] 0.006 | [6] 0.006 | [7] 0.001 | [8] -0.01

SNX15 (UniProt Q9NRS6)
inactive: ibrutinib -0.006 | [1] -0.014 | ralimetinib 0.012 | [2] -0.002 | [3] -0.058 | [4] 0.009 | [5] 0.037 | [6] -0.046 | [7] 0.066 | [8] 0.019

Remaining list, next part.

SNRNP40 (UniProt Q96DI7)
inactive: ibrutinib -0.008 | [1] 0.026 | ralimetinib -0.03 | [2] -0.047 | [3] -0.02 | [4] 0.042 | [6] 0.02 | [7] 0.069 | [8] 0.029
active: [5] 0.332

SNX12 isoform 1 (UniProt Q9UMY4)
inactive: ibrutinib -0.031 | [1] -0.016 | ralimetinib -0.022 | [2] -0.038 | [3] -0.033 | [4] -0.066 | [5] -0.018 | [6] -0.02 | [7] -0.007 | [8] -0.014

SNRPA (UniProt P09012)
inactive: ibrutinib 0.017 | [1] -0.02 | ralimetinib -0.019 | [2] -0.012 | [3] -0.001 | [4] -0.018 | [5] -0.035 | [6] 0.002 | [7] -0.004 | [8] -0.017

SMARCD2 (UniProt Q92925)
inactive: ibrutinib 0.026 | [1] 0.001 | ralimetinib 0.028 | [2] 0.048 | [3] -0.009 | [4] -0.007 | [5] -0.033 | [6] -0.033 | [7] -0.015 | [8] 0.026

SMARCA4 (UniProt P51532)
inactive: ibrutinib 0.021 | [1] -0.007 | ralimetinib 0.035 | [2] 0.018 | [3] -0.009 | [4] -0.003 | [5] -0.032 | [6] -0.026 | [7] 0.028 | [8] 0.012
